The other results are listed elsewhere or left out.
Compound: COc1ccc(Cn2ccc3cc(C)c(C(=O)NO)cc32)cc1
Assay: dose-dependent thermal stabilisation call (2D-TPP, DLPTP, 10% FDR) (binary (1 = stabilised)); higher = stabilised by the compound
Settings: system: HL-60 intact cells; concentration range 0.04-10 µM
Procedure: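 2D thermal proteome profiling in intact HL-60 cells treated with BRD-3811 (0, 0.04, 0.29, 2, 10 uM) for 90 min at 37 C, then heated 3 min at one of 12 temperatures (42-63.9 C). Soluble protein was quantified by TMT10 MS. The value is the DLPTP call of the paper: dose-dependent thermal stabilisation over all temperatures at 10% FDR (F-test of a dose-response against a flat model); one experiment, one call per tested protein.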

Sequences of proteins named here, by UniProt entry; tags and fusion partners are left off. A change or cut given only in a name is not applied to a line headed by its entry.
UniProt Q8WTW4: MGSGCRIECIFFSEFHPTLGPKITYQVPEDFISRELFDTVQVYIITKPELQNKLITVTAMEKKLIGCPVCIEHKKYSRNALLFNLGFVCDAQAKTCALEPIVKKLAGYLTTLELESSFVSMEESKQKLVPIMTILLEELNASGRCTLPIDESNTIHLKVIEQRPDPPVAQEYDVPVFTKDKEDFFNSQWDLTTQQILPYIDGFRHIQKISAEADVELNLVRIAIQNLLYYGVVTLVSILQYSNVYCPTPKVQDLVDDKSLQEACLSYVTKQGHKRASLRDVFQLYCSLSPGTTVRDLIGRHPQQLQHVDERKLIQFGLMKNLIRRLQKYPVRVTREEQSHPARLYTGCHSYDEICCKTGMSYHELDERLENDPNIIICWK
UniProt P04818: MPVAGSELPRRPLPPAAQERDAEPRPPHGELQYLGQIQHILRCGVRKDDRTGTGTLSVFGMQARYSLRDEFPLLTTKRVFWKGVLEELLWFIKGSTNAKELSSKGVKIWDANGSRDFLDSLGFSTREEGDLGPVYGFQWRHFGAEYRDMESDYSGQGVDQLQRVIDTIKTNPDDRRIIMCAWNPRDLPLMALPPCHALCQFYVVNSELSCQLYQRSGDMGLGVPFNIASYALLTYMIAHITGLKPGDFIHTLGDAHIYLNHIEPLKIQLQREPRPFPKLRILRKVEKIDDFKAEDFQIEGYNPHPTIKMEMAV
UniProt Q96JJ7: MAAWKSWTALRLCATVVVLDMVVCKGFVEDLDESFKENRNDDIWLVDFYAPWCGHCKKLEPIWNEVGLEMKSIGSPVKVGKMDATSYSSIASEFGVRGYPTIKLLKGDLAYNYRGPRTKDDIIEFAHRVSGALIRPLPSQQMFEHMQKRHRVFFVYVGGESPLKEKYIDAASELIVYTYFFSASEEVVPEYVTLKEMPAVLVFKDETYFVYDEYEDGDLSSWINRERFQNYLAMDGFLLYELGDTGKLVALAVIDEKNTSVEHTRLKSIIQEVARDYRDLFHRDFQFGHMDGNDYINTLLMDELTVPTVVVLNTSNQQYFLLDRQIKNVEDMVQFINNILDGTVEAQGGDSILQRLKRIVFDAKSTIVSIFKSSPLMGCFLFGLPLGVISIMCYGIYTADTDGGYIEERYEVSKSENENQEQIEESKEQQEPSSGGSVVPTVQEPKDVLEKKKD
UniProt Q5ST30: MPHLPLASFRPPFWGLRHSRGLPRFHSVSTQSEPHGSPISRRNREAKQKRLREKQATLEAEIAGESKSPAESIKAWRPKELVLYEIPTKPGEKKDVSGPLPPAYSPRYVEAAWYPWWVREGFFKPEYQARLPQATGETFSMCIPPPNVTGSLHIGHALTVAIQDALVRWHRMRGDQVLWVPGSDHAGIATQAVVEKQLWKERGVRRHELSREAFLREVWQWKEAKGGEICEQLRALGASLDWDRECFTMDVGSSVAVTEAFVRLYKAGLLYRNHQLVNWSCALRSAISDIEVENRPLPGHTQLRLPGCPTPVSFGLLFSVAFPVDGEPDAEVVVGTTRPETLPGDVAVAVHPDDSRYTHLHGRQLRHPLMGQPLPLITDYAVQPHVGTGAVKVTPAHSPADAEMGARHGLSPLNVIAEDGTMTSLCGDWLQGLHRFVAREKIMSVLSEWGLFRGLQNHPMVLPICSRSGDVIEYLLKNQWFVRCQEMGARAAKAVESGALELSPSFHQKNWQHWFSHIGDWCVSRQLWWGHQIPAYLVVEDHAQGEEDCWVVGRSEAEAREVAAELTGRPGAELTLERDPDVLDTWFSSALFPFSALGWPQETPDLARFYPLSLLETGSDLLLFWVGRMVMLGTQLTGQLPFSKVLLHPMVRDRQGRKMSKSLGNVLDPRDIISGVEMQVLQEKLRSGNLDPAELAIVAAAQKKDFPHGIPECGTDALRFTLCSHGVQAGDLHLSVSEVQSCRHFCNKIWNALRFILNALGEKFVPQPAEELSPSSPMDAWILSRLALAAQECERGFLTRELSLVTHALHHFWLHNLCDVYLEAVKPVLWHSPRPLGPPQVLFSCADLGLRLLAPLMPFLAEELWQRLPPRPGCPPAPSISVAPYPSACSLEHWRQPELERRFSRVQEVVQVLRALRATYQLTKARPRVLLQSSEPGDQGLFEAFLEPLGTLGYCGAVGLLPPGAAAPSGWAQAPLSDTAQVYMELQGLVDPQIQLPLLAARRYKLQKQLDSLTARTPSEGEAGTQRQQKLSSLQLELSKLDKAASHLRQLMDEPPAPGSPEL
UniProt Q9NP79: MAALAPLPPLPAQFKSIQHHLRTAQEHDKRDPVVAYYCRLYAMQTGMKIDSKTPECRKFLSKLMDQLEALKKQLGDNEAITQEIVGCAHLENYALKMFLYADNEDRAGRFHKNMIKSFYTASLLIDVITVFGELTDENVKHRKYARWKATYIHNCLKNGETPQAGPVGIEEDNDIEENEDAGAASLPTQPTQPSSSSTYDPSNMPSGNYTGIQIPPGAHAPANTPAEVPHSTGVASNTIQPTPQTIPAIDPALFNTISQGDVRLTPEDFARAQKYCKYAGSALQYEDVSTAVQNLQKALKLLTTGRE
UniProt Q9BZI7: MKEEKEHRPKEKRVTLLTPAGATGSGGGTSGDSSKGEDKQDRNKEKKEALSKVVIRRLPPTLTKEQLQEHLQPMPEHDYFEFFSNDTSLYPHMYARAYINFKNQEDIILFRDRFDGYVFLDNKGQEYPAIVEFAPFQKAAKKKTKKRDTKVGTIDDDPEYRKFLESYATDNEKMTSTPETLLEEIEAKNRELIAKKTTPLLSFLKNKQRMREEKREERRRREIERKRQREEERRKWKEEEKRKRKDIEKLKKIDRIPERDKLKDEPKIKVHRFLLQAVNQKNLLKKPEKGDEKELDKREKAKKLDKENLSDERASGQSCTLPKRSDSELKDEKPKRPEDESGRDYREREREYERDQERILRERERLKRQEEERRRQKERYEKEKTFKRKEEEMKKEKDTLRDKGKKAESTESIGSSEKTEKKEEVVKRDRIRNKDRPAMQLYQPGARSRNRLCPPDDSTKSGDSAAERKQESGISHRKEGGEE
UniProt Q9P2Y5: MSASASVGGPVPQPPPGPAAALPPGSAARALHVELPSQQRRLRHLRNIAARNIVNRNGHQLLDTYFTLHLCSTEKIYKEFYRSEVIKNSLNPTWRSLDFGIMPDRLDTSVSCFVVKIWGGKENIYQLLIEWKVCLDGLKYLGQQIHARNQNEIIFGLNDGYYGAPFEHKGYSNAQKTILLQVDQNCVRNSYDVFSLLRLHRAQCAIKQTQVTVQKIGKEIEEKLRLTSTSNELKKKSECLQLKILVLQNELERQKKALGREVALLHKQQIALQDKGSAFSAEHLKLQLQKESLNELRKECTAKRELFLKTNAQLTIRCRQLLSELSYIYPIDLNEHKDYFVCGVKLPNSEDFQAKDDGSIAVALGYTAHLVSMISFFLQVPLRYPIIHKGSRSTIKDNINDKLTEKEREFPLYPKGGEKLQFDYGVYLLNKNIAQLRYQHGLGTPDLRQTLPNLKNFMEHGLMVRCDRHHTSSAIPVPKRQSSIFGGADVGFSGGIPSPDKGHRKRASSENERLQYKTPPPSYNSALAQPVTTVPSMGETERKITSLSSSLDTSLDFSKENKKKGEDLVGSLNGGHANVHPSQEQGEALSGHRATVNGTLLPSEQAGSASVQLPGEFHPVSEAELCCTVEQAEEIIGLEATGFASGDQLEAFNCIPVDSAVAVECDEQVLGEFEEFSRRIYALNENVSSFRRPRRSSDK
UniProt Q969T9: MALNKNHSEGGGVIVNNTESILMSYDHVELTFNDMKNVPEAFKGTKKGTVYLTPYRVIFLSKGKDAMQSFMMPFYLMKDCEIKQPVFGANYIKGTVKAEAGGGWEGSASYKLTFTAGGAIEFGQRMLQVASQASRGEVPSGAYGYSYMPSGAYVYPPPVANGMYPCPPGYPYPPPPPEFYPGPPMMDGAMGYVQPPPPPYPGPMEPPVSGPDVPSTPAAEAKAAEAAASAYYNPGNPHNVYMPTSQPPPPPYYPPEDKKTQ
UniProt Q71U36, whole entry: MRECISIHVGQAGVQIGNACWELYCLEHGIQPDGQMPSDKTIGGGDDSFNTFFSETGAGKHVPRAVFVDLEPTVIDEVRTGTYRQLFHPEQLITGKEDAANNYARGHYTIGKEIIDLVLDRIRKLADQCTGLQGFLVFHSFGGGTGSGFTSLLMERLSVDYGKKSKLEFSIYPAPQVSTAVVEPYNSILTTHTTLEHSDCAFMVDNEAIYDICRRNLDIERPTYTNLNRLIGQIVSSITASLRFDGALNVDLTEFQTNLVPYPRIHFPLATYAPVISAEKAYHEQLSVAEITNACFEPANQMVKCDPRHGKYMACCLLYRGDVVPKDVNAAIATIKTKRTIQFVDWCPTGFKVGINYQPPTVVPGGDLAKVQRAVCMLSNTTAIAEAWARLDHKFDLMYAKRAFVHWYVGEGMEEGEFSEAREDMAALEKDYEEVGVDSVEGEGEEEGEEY
UniProt P40818: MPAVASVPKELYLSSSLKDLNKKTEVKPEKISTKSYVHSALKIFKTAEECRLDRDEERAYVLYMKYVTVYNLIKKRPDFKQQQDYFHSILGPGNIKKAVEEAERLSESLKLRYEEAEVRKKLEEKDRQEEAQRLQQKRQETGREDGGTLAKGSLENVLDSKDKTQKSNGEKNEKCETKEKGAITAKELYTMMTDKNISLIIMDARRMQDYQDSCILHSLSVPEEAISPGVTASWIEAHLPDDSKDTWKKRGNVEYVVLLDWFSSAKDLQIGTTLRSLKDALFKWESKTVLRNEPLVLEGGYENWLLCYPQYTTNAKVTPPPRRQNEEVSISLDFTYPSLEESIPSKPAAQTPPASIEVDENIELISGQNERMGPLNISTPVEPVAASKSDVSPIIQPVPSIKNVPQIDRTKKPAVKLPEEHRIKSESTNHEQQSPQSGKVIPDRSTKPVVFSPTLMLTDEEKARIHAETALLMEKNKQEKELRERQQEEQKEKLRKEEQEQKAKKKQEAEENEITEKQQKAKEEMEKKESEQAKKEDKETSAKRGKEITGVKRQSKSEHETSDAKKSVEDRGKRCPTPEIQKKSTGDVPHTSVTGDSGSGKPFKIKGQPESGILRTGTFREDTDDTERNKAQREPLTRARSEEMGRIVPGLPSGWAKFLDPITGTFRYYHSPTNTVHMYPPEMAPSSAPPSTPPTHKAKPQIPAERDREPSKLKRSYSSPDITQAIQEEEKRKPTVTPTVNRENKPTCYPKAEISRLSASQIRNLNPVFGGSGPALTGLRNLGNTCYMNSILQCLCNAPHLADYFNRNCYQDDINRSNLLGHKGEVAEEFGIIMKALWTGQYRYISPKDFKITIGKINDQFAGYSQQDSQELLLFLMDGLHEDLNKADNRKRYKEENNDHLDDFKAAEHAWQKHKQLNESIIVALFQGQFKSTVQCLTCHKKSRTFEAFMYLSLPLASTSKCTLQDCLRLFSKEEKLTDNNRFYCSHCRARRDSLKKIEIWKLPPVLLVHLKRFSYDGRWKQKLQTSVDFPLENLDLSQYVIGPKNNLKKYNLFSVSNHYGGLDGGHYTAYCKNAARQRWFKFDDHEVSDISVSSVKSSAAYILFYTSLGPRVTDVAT
UniProt Q6PKC3: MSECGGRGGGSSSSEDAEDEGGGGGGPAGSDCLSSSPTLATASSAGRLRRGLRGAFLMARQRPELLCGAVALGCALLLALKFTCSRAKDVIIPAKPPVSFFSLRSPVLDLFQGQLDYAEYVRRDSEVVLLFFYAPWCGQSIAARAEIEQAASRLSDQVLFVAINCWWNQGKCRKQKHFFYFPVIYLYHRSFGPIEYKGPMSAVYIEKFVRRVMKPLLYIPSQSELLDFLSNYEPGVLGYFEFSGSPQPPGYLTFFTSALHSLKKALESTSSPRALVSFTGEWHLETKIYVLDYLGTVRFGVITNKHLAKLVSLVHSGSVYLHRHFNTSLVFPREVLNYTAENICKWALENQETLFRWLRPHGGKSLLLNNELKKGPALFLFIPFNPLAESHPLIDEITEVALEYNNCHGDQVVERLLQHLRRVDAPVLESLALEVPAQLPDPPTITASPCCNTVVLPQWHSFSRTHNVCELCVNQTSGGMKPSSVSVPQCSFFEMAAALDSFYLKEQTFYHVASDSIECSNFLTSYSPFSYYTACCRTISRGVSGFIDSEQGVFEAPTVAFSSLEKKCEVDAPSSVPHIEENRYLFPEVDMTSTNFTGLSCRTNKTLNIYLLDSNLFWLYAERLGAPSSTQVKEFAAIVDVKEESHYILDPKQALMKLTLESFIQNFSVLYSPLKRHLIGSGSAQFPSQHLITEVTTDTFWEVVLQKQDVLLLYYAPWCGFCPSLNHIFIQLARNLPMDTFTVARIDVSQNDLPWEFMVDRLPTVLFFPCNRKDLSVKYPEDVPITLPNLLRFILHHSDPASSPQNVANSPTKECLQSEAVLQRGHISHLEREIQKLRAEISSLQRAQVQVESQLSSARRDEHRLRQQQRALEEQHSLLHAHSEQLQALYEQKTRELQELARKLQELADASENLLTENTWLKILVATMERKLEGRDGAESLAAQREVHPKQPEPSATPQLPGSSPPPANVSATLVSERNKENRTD

Q: For TXNDC17 (UniProt Q9BRA2), which “dose-dependent thermal stabilisation call” value is on record?
A: The value was inactive: 0.

Q: WBSCR16 (UniProt Q96I51) was tested. Which “dose-dependent thermal stabilisation call” value did it give?
A: Its value is inactive: 0.

Q: For TUSC4 (UniProt Q8WTW4), which “dose-dependent thermal stabilisation call” value is on record?
A: Its value is inactive: 0.

Q: Which “dose-dependent thermal stabilisation call” value does the source give for VPS52 (UniProt Q8N1B4) here?
A: The value was inactive: 0.

Q: Which “dose-dependent thermal stabilisation call” value does the source give for VTI1A (UniProt Q96AJ9) here?
A: Its value is inactive: 0.

Q: How did the “dose-dependent thermal stabilisation call” value turn out when TYMS (UniProt P04818) was run?
A: Its value is inactive: 0.

Q: UBFD1 (UniProt O14562) was tested. Which “dose-dependent thermal stabilisation call” value did it give?
A: Its value is inactive: 0.

Q: How did the “dose-dependent thermal stabilisation call” value turn out when VANGL1 (UniProt Q8TAA9) was run?
A: The value was inactive: 0.

Q: Which “dose-dependent thermal stabilisation call” value does the source give for WAPAL (UniProt Q7Z5K2) here?
A: Its value is inactive: 0.

Q: Which “dose-dependent thermal stabilisation call” value does the source give for UNC13B (UniProt O14795) here?
A: The value was inactive: 0.

Q: With TXNDC10 (UniProt Q96JJ7) as the target, how does the “dose-dependent thermal stabilisation call” value read?
A: The value was inactive: 0.

Q: For UBXN1 (UniProt Q04323), which “dose-dependent thermal stabilisation call” value is on record?
A: The value was inactive: 0.

Q: With USP39 (UniProt Q53GS9) as the target, how does the “dose-dependent thermal stabilisation call” value read?
A: The value was inactive: 0.

Q: Which “dose-dependent thermal stabilisation call” value does the source give for WDR1 (UniProt O75083) here?
A: The value was inactive: 0.

Q: Which “dose-dependent thermal stabilisation call” value does the source give for TTN (UniProt Q8WZ42) here?
A: The value was inactive: 0.

Q: How did the “dose-dependent thermal stabilisation call” value turn out when UBE3B (UniProt Q7Z3V4) was run?
A: The value was inactive: 0.

Q: With VARS2 (UniProt Q5ST30) as the target, how does the “dose-dependent thermal stabilisation call” value read?
A: Its value is inactive: 0.

Q: How did the “dose-dependent thermal stabilisation call” value turn out when UBAP2 (UniProt Q5T6F2) was run?
A: Its value is inactive: 0.

Q: For VTA1 (UniProt Q9NP79), which “dose-dependent thermal stabilisation call” value is on record?
A: Its value is inactive: 0.

Q: How did the “dose-dependent thermal stabilisation call” value turn out when UTP23 (UniProt Q9BRU9) was run?
A: Its value is inactive: 0.

Q: Which “dose-dependent thermal stabilisation call” value does the source give for UPF3B (UniProt Q9BZI7) here?
A: Its value is inactive: 0.

Q: How did the “dose-dependent thermal stabilisation call” value turn out when UVRAG (UniProt Q9P2Y5) was run?
A: The value was inactive: 0.

Q: Which “dose-dependent thermal stabilisation call” value does the source give for WBP2 (UniProt Q969T9) here?
A: The value was inactive: 0.

Q: How did the “dose-dependent thermal stabilisation call” value turn out when TUBA1A (UniProt Q71U36) was run?
A: Its value is inactive: 0.

Q: With UBE2K (UniProt P61086) as the target, how does the “dose-dependent thermal stabilisation call” value read?
A: The value was inactive: 0.

Q: With VPS25 (UniProt Q9BRG1) as the target, how does the “dose-dependent thermal stabilisation call” value read?
A: The value was inactive: 0.

Q: Which “dose-dependent thermal stabilisation call” value does the source give for USP8 (UniProt P40818) here?
A: The value was inactive: 0.

Q: UBE2D2 (UniProt P62837) was tested. Which “dose-dependent thermal stabilisation call” value did it give?
A: The value was inactive: 0.

Q: Which “dose-dependent thermal stabilisation call” value does the source give for UBE2O (UniProt Q9C0C9) here?
A: The value was inactive: 0.

Q: Which “dose-dependent thermal stabilisation call” value does the source give for TXNDC14 (UniProt Q9Y320) here?
A: The value was inactive: 0.

Q: How did the “dose-dependent thermal stabilisation call” value turn out when TXNDC11 (UniProt Q6PKC3) was run?
A: Its value is inactive: 0.

Q: With VPS8 (UniProt Q8N3P4) as the target, how does the “dose-dependent thermal stabilisation call” value read?
A: Its value is inactive: 0.

Q: Which “dose-dependent thermal stabilisation call” value does the source give for TYMP (UniProt P19971) here?
A: The value was inactive: 0.

Q: Which “dose-dependent thermal stabilisation call” value does the source give for UBE3A (UniProt Q05086) here?
A: The value was inactive: 0.

Q: VAC14 (UniProt Q08AM6) was tested. Which “dose-dependent thermal stabilisation call” value did it give?
A: The value was inactive: 0.

Q: TXNDC15 (UniProt Q96J42) was tested. Which “dose-dependent thermal stabilisation call” value did it give?
A: Its value is inactive: 0.
